Measured data: PubChem BioAssay AID686943 (Drosophila RNAi Screening Center, 2013)
The deposit covers about 23,000 reagents; shown is a random part of those that have a named target and a result. 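Extra replicates exist only for a retested subset of genes; insulin dose and duration not given; both raised and lowered dpERK matter.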 Not stated in the record: the amount of reagent, the time to read-out.

Aim: 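Knockdowns that increase or decrease active ERK after insulin receptor stimulation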 (primary screen)
System: Drosophila S2R+ haemocyte-like cells expressing YFP-tagged ERK (Rolled)
Knock-down reagent: long dsRNA against Drosophila genes
Conditions: insulin stimulation versus unstimulated cells; dose and duration not given
Detection: 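Antibody staining for doubly phosphorylated ERK divided by ERK-YFP signal, as plate z-scores, in insulin-treated and untreated cells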
Direction: replicate 1, z-score of dpERK with insulin and replicate 2, z-score of dpERK with insulin: higher = more active ERK per ERK-YFP after insulin; replicate 1, z-score of dpERK under basal conditions: higher = more basal active ERK per ERK-YFP; replicate 1, z-score of ERK-YFP with insulin: higher = more YFP-tagged ERK signal

gene | amplicon | replicate 1, z-score of dpERK with insulin | replicate 2, z-score of dpERK with insulin | replicate 1, z-score of dpERK under basal conditions | replicate 1, z-score of ERK-YFP with insulin
t-Grip91 (testis-specific gamma-tubulin ring protein 91) | DRSC01506 | -0.02 | -0.65 | 0.2 | -0.2
capu (cappuccino) | DRSC00208 | -0.22 | 0.02 | -0.16 | 0.32
capu (cappuccino) | DRSC00209 | -3.61 | -4.58 | -1.19 | 1.92
capu (cappuccino) | DRSC00434 | 0.69 | 0.76 | -0.35 | -0.07
capu (cappuccino) | DRSC00807 | 0.47 | -0.15 | -0.07 | 0.22
yellow-e | DRSC12966 | 0.54 | 0.16 | 0.15 | 0.1
yellow-e | DRSC16563 | -0.07 | 0.14 | 0.73 | -0.17
CG17258 | DRSC00495 | 0.4 | 2.38 | 0.85 | 1.69
CG17258 | DRSC22709 | 0.2 | 0.36 | 0.1 | -0.12
CG32192 | DRSC21760 | 0.15 | -0.65 | -0.24 | -0.29
CG31524 | DRSC22014 | -0.06 | -1.12 | -0.69 | 0.46
Hex-C (Hexokinase C) | DRSC07079 | -1.6 | 0.21 | -1.12 | -0.65
ICA69 (Islet cell autoantigen 69 kDa) | DRSC11621 | -0.21 | -0.85 | -0.1 | 0.56
CG15353 | DRSC00383 | -0.32 | 0.33 | 0.58 | -0.01
CG4849 | DRSC15662 | 2.64 | -2.68 | 1.67 | -1.62
CG12438 | DRSC02167 | -1.19 | -1.24 | 0.68 | -0.23
Pfas (Phosphoribosylformylglycinamidine synthase) | DRSC03480 | 0.47 | 0.3 | 0.41 | 0.14
fwd (four wheel drive) | DRSC08580 | 1.9 | 1.89 | 1.4 | -1.83
CG13367 | DRSC18485 | 0.6 | 0.12 | 0.2 | 0.61
CG13367 | DRSC18486 | 0.07 | 0.95 | 0.53 | -0.05
CG12099 | DRSC08253 | 0.03 | 0.52 | -0.77 | -0.02
ppk19 (pickpocket 19) | DRSC15321 | 0.49 | 0.09 | 0.91 | 0.69
witty (without maturity) | DRSC02378 | 1.35 | 0.42 | 1.78 | -0.21
witty (without maturity) | DRSC21650 | 0.17 | 0.88 | 0.26 | 0.59

Laid out differently: 2 of the entries above
gene,amplicon,"replicate 1, z-score of dpERK with insulin","replicate 2, z-score of dpERK with insulin","replicate 1, z-score of dpERK under basal conditions","replicate 1, z-score of ERK-YFP with insulin"
CG31524,DRSC22014,-0.06,-1.12,-0.69,0.46
Hex-C (Hexokinase C),DRSC07079,-1.6,0.21,-1.12,-0.65
